Values quoted from earlier work as cited in article PMC12881681 (Molecular Pharmacology, 2025).
Certain results were filed several times, with different values. The other results are left out here. There may be further records. The records of an entry differ, and nothing given here explains why; they may come from other doses, times, organisms or constructs than stated.

Conditions: healthy non-smoker volunteers, single 150 mg dose of erlotinib; cited from earlier work

C#Cc1cccc(Nc2ncnc3cc(OCCOC)c(OCCO)cc23)c1 [O-Desmethylerlotinib, O-desmethylerlotinib]
Cmax: 43.5–98.3 ng/mL and 110 nM to 260 nM
